At least one structure is not confirmed: it was looked up by name or label, or the drawing left a doubt.
Columns and labels:
Format in all cases: cell-based, mouse
MMP-2 [1] = assay: MMP-2 expression (immunostaining and PCR); conditions: microcavitation, doxycycline or phenanthroline pretreatment
MMP-9 [2] = assay: MMP-9 expression (immunostaining and PCR); conditions: microcavitation, doxycycline or phenanthroline pretreatment
MMP-2 [3] = assay: MMP-2 enzyme activity assay (EnzChek) in cells exposed to microcavitation; conditions: microcavitation (5 blasts), pretreatment 2 h: doxycycline 20 mM, phenanthroline 0.5 mM
Protocol: (§1) MMPs activities assay, Fold change, and Permeability measurement: EnzChek MMP-2 & 9 Assay Kit were used for MMP-2 & 9 activity assays. Cells were cultured in endothelial cell complete media and divided into the following groups: control (no treatment), exposed (5 blasts), doxycycline (20 mM)+exposed (5 blasts), doxycycline (20 mM), and phenanthroline (0.5 mM, positive control). Before initiating experiments, cells were washed with PBS, and no serum media was applied. Dishes in the treatment groups were pretreated with doxycycline or phenanthroline for 2 h at 37° C. Cells were exposed to microcavitation and incubated at 37° C. for 1 h. All groups were homogenized with lysis buffer containing 0.1% Triton-X 100, and protein was estimated with Pierce BCA Protein Assay Kit. Equal amounts of protein from each sample were aliquoted in lysis buffer. Samples were then analyzed using a plate reader at excitation 495 nm and 515 nm to quantitate MMP-2 & 9 activities. Primary brain endothelial cells were grown under the conditions described above. At the end of all experimental conditions, RNA from the cells was extracted and used for PCR analysis of the MMP-2 & 9 gene expressions. Finally, the permeability of the brain endothelium model exposed to doxycycline, P188, or in combination of them both was measured.

MMP-9 [4] = assay: MMP-9 enzyme activity assay (EnzChek) in cells exposed to microcavitation; conditions: microcavitation (5 blasts), pretreatment 2 h: doxycycline 20 mM, phenanthroline 0.5 mM
Protocol: as §1

Structure (SMILES): C[C@H]1c2cccc(O)c2C(=O)C2=C(O)[C@]3(O)C(=O)C(C(N)=O)=C(O)[C@@H](N(C)C)[C@@H]3[C@@H](O)[C@@H]21 [doxycycline]
- MMP-2 gene expression (MMP-2 [1]): downregulated
- MMP-9 gene expression (MMP-9 [2]): downregulated
- MMP-2 enzymatic activity (MMP-2 [3]): negated
- MMP-9 enzymatic activity (MMP-9 [4]): negated

Reference: US20220378696A1, “TARGET DELIVERY OF NON-BIOLOGICS THROUGH NANOTECHNOLOGY FOR TISSUE REPAIR” (BOARD OF REGENTS, THE UNIVERSITY OF TEXAS SYSTEM, priority 2019, published 2022)
